# Some of the results follow. These are further read-outs of the screen, such as a control signal, another cell line or another target. No call is given for them. Most of these compounds were active or inconclusive in the main read-out, so they are no random draw. Potencies come from curve fits of mixed quality, noted in brackets.
# Experiment: qHTS Assay for Lipid Storage Modulators in Drosophila S3 Cells;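 as to cell number change: cells counted by Cell Tracker Red CMTPX staining in the red channel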
# Details: BODIPY lipid droplet fluorescence, 18-24 h; for cell number change: measured here: cell count max response, cells fed with added oleic acid
# How it was run: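 Laser-scanning cytometry quantifies lipid droplet accumulation (500–530 nm total intensity; droplet/cell object ratio) in oleic acid-fed (400 uM added) Drosophila S3 cells treated with a concentration series. 20 uM Triacsin C defined 100% inhibition.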
# [1] = measured here: cell number channel AC50, cells fed with added oleic acid
# [2] = measured here: lipid fluorescence (Fed channel) AC50, cells fed with added oleic acid
Structure (SMILES),cell number change,AC50 [1],AC50 [2]
O=C(CC1Nc2ccccc2NC1=O)Nc1cc(Cl)cc(Cl)c1 (stereo unspecified),35.6%,"0.164 µM [rising, full curve]","25.9 µM [rising, partial curve]"
CC(C)Cn1c(N)c(C(=O)CSc2nc3ncc(Cl)cc3[nH]2)c(=O)n(C)c1=O,-17.6%,,"2.06 µM [rising, partial curve]"
Cc1oc(-c2cccc(C(F)(F)F)c2)nc1CN1CCC[C@H]1CO,-4.42%,,"5.8 µM [falling, single point]"
C=CCNC(=S)N1CCc2[nH]c3ccccc3c2C1,9.01%,,"6.51 µM [rising, single point]"
COc1ccc(S(=O)(=O)NC2CCN(Cc3ccccc3)CC2)cc1NC(C)=O,-1.3%,,
CCN(CC(O)COCc1ccc(Cl)cc1)C1CCCCC1 (stereo unspecified),-53.9%,"29.1 µM [falling, single point]","14.6 µM [rising, single point]"
O=C(NCc1ccccc1)c1ccc2nc(N3CCOCC3)sc2c1,36.4%,"4.11 µM [rising, full curve]","29.1 µM [rising, single point]"
Cc1cc(C)cc(NS(=O)(=O)c2ccc3c(c2)C(C)(C)C(=O)N3C)c1,-43.8%,"25.9 µM [falling, partial curve, poor fit]","10.3 µM [falling, partial curve]"
COc1ccc([C@H]2CC(=O)C=C(c3cccc(C#N)c3)C2)cc1,-20.6%,"0.731 µM [falling, full curve, poor fit]","1.46 µM [falling, full curve]"
OC(COc1ccc(F)cc1)CN1CCN(CC(O)COc2ccc(F)cc2)CC1 (stereo unspecified),-11.3%,,"29.1 µM [rising, single point]"
Cc1cc(C)n(C(=O)C23CC4CC(CC(C4)C2)C3)n1,-85.2%,"29.1 µM [falling, single point]",
O=[N+]([O-])c1ccc(COc2ccc(Br)cc2CN2CCOCC2)cc1,36.4%,,
O=C(O)c1ccccc1NCc1ccco1,17.4%,,"0.00461 µM [rising, full curve, poor fit]"
O=C(O)/C=C\C(=O)NC1CCCCC1,3.89%,,"6.51 µM [falling, partial curve]"
COc1ccc2c(c1)OC[C@H]1[C@H]2N2C(=O)CN(CC3CCCO3)C(=O)[C@@]2(C)[C@H]1c1ccccc1 (stereo partly specified),-9.63%,,"6.51 µM [falling, single point]"
O=C(CCNC(=O)C1CCN(S(=O)(=O)c2ccc(F)cc2)CC1)NC1CC1,14.9%,,"29.1 µM [rising, single point]"
O=[N+]([O-])c1ccc(Sc2ncccn2)c([N+](=O)[O-])c1,-56.3%,"11.6 µM [falling, partial curve]","10.3 µM [falling, partial curve, poor fit]"
O=c1oc2ccccc2c(N2CCCC2)c1[N+](=O)[O-],29.6%,,"20.6 µM [rising, single point]"
O=C(NC(=S)Nc1cccc2c(O)cccc12)c1ccccc1[N+](=O)[O-],,,"0.58 µM [rising, single point]"
C/C(=N\N=C(/N)SC1CC(=O)N(c2ccc(Cl)cc2)C1=O)c1cccs1 (stereo unspecified),-7.33%,,"29.1 µM [falling, single point]"
CCOC(=O)COn1c(=O)c(-c2ccc(Br)cc2)[n+]([O-])c2ccccc21,33.1%,,
CC1=CC2CC1C1C(=O)N(c3ccc(S(=O)(=O)Nc4nc(C)cc(C)n4)cc3)C(=O)C21 (stereo unspecified),13.8%,,"0.651 µM [falling, partial curve]"
CC(C)(C)NC(=O)CN(C(=O)C(=O)Nc1ccc2c(c1)OCCO2)C1CC1,-22.9%,,"29.1 µM [falling, single point]"
COC(=O)c1c(NC(=O)CSc2nc3ccccc3c(=O)n2-c2ccccc2)sc(C)c1C,2.98%,,
COc1cc(-c2cn(S(=O)(=O)c3cccc4nsnc34)nc2N)cc(OC)c1OC,-7.14%,"2.06 µM [rising, partial curve]","0.731 µM [rising, single point]"
CCCCN(C)CCN1C(=O)C2C(C(=O)Nc3cccc(OC)c3)C3C=CC2(O3)C1C(=O)NC1CCCCC1C (stereo unspecified),-0.901%,,"11.6 µM [falling, single point]"
CCC1Oc2ccc(C)cc2N(CC(=O)NCCCN2CCCCC2CC)C1=O (stereo unspecified),-28.6%,,"0.411 µM [falling, full curve]"

# Record cards, from the list above:
# O=[N+]([O-])c1ccc(COc2ccc(Br)cc2CN2CCOCC2)cc1 in the list: cell number change: 36.4%
# O=[N+]([O-])c1ccc(Sc2ncccn2)c([N+](=O)[O-])c1 in the list: cell number change: -56.3%; AC50 [1]: 11.6 µM [falling, partial curve]; AC50 [2]: 10.3 µM [falling, partial curve, poor fit]

# — PubChem BioAssay AID2685 (National Center for Advancing Translational Sciences (NCATS), 2010)
